Reference: paper doi:10.1101/2025.01.12.632651
No constants are given. Whether binding was seen depends on the method and setting. Binding seen in cells or lysates may run through a third protein. Some binding calls cover weakened binding; strength is not graded here. Values belong to the molecule of their own block, whether it stands above or below them.

Legend:
[1] = biological target: GluN2B subunit, R519Q disease-associated variant (human GRIN2B) (human) (UniProt Q13224); test: co-IP
[2] = biological target: GluN2B subunit, R519Q variant with F1307A disruption of the LIR motif (human GRIN2B) (human) (UniProt Q13224); test: co-IP

binding [1]: binds
binding [2]: binds
Molecule: Beclin 1 (from UniProt Q14457 1-450)

binding [1]: binds
binding [2]: binds
B1: CCPG1 (ER-phagy receptor) (protein, UniProt Q9ULG6 1-757)
chain: MSENSSDSDSSCGWTVISHEGSDIEMLNSVTPTDSCEPAPECSSLEQEELQALQIEQGESSQNGTVLMEETAYPALEETSSTIEAEEQKIPEDSIYIGTASDDSDIVTLEPPKLEEIGNQEVVIVEEAQSSEDFNMGSSSSSQYTFCQPETVFSSQPSDDESSSDETSNQPSPAFRRRRARKKTVSASESEDRLVAEQETEPSKELSKRQFSSGLNKCVILALVIAISMGFGHFYGTIQIQKRQQLVRKIHEDELNDMKDYLSQCQQEQESFIDYKSLKENLARCWTLTEAEKMSFETQKTNLATENQYLRVSLEKEEKALSSLQEELNKLREQIRILEDKGTSTELVKENQKLKQHLEEEKQKKHSFLSQRETLLTEAKMLKRELERERLVTTALRGELQQLSGSQLHGKSDSPNVYTEKKEIAILRERLTELERKLTFEQQRSDLWERLYVEAKDQNGKQGTDGKKKGGRGSHRAKNKSKETFLGSVKETFDAMKNSTKEFVRHHKEKIKQAKEAVKENLKKFSDSVKSTFRHFKDTTKNIFDEKGNKRFGATKEAAEKPRTVFSDYLHPQYKAPTENHHNRGPTMQNDGRKEKPVHFKEFRKNTNSKKCSPGHDCRENSHSFRKACSGVFDCAQQESMSLFNTVVNPIRMDEFRQIIQRYMLKELDTFCHWNELDQFINKFFLNGVFIHDQKLFTDFVNDVKDYLRNMKEYEVDNDGVFEKLDEYIYRHFFGHTFSPPYGPRSVYIKPCHYSSL
